In patent publication US7868135B2 (priority 2003, dated 2011):

Experiment: general procedure: peptide synthesis; 2-chlorotrityl amine resin; Wang Resin (for building blocks); succinimide activated esters (hydroxysuccinimide/dicyclohexylcarbodiimide), sodi
Settings: coupling step

**Q.** Which “final purity (method not given)” value does the source give for C15-Amphomycin-9-Lys-Lys here?
**A.** 72% pure

**Q.** What about the step yield of the same substance?
**A.** 23% yield

**Q.** Which results are given for C15-Amphomycin-9-Sar-Lys?
**A.** final purity (method not given): 84% pure; step yield: 9% yield

**Q.** With C15-Amphomycin-9-Gly-Lys-Lys as the substance, how does the “final purity (method not given)” value read?
**A.** 74% pure

**Q.** What about the step yield of the same substance?
**A.** 52% yield

**Q.** With C15-Amphomycin-9-Lys-Lys-Lys as the substance, how does the “final purity (method not given)” value read?
**A.** 91% pure

**Q.** And the step yield?
**A.** 56% yield

**Q.** Which “final purity (method not given)” value does the source give for C15-Amphomycin-9-Gly-Gly-Lys here?
**A.** 88% pure

**Q.** And the step yield?
**A.** 54% yield

**Q.** For C15-Amphomycin-9-Sar-Ahx, which “final purity (method not given)” value is on record?
**A.** 98% pure

**Q.** What about the step yield of the same substance?
**A.** 12% yield

**Q.** For C15-Amphomycin-9-Gly-Lys-Gly, which “final purity (method not given)” value is on record?
**A.** 77% pure

**Q.** What about the step yield of the same substance?
**A.** 68% yield

**Q.** Which “final purity (method not given)” value does the source give for C15-Amphomycin-9-Gly-Ahx here?
**A.** 98% pure

**Q.** What about the step yield of the same substance?
**A.** 15% yield

**Q.** For C15-Amphomycin-9-Lys-Gly, which “final purity (method not given)” value is on record?
**A.** 91% pure

**Q.** And the step yield?
**A.** 63% yield

**Q.** With C15-Amphomycin-9-Pro-Lys as the substance, how does the “final purity (method not given)” value read?
**A.** 88.9% pure

**Q.** What about the step yield of the same substance?
**A.** 22.6% yield

**Q.** What does the source list for C15-Amphomycin-9-Dap-(β-N-(β-Ala))?
**A.** final purity (method not given): 85% pure; step yield: 7% yield

**Q.** With C15-Amphomycin-9-Gly-(D-Leu) as the substance, how does the “final purity (method not given)” value read?
**A.** 83% pure

**Q.** What about the step yield of the same substance?
**A.** 19% yield

Same assay, conditions: late stage modification step

**Q.** For C15-Amphomycin-9-Gly-Gly-Gly, which “final purity (method not given)” value is on record?
**A.** 89% pure

**Q.** What about the step yield of the same substance?
**A.** 38% yield

**Q.** With C12-Amphomycin-9-Gly-Lys as the substance, how does the “final purity (method not given)” value read?
**A.** 80% pure

**Q.** And the step yield?
**A.** 10% yield

**Q.** For C15-Amphomycin-9-Pro-Gly, which “final purity (method not given)” value is on record?
**A.** 84% pure

**Q.** And the step yield?
**A.** 40% yield

**Q.** Which “purity (crude or final not stated)” value does the source give for “CH3—(CH2)13—NH—C(═O)-Amphomycin-9-Gly-Lys” here?
**A.** 80% pure

**Q.** What about the step yield of the same substance?
**A.** 28% yield

**Q.** Which “final purity (method not given)” value does the source give for C15-Amphomycin-9-Gly-Dap here?
**A.** 73% pure

**Q.** And the step yield?
**A.** 36% yield

**Q.** With “CH3—(CH2)11—O-p-Ph-C(═O)-Gly-Amphomycin-9-Gly” as the substance, how does the “final purity (method not given)” value read?
**A.** 88% pure

**Q.** What about the step yield of the same substance?
**A.** 19% yield

**Q.** Which “final purity (method not given)” value does the source give for C15-Amphomycin-9-Gly-Suc here?
**A.** 93% pure

**Q.** What about the step yield of the same substance?
**A.** 23% yield

**Q.** Which results are given for C15-Amphomycin-9-Sar-(N,N-Dimethyl-Gly)?
**A.** final purity (method not given): 99% pure; step yield: 32% yield

**Q.** Which results are given for C15-Amphomycin-9-Gly-Lys?
**A.** final purity (method not given): 80% pure; step yield: 41% yield

**Q.** With CH3—(CH2)9—SO2-Gly-Amphomycin-9-Lys as the substance, how does the “final purity (method not given)” value read?
**A.** 83% pure

**Q.** What about the step yield of the same substance?
**A.** 5.7% yield

**Q.** What does the source list for C15-Amphomycin-9-Gly-(D-Lys)?
**A.** final purity (method not given): 82% pure; step yield: 58% yield

**Q.** Which “final purity (method not given)” value does the source give for C15-Amphomycin-9-Sar-Dap here?
**A.** 83% pure

**Q.** And the step yield?
**A.** 16% yield

**Q.** For C13-Amphomycin-9-Gly-Lys, which “final purity (method not given)” value is on record?
**A.** 93% pure

**Q.** And the step yield?
**A.** 46% yield

**Q.** What does the source list for CH3—(CH2)9—SO2-Gly-Amphomycin-9-Gly?
**A.** final purity (method not given): 78% pure; step yield: 18% yield

**Q.** With C16-Amphomycin-9-Gly-Lys as the substance, how does the “final purity (method not given)” value read?
**A.** 79% pure

**Q.** And the step yield?
**A.** 13% yield

**Q.** What does the source list for C15-Amphomycin-9-Gly-Orn?
**A.** final purity (method not given): 68% pure; step yield: 66% yield

**Q.** Which results are given for C15-Amphomycin-9-Gly-Phe?
**A.** final purity (method not given): 77% pure; step yield: 26% yield

**Q.** For C15-Amphomycin-9-Ahx-Gly, which “final purity (method not given)” value is on record?
**A.** 99% pure

**Q.** And the step yield?
**A.** 30% yield

**Q.** For C15-Amphomycin-9-Gly-(D-Ala), which “final purity (method not given)” value is on record?
**A.** 75% pure

**Q.** What about the step yield of the same substance?
**A.** 37% yield

**Q.** With C15-Amphomycin-9-Gly-Ac as the substance, how does the “final purity (method not given)” value read?
**A.** 89% pure

**Q.** What about the step yield of the same substance?
**A.** 11% yield

**Q.** What does the source list for C15-Amphomycin-9-Gly-GABA?
**A.** final purity (method not given): 74% pure; step yield: 31% yield

**Q.** Which “final purity (method not given)” value does the source give for C17-Amphomycin-Gly-Lys here?
**A.** 82% pure

**Q.** What about the step yield of the same substance?
**A.** 15% yield

**Q.** For C15-Amphomycin-9-(N-Benzoyl-Tyr-PABA), which “final purity (method not given)” value is on record?
**A.** 91% pure

**Q.** What about the step yield of the same substance?
**A.** 11% yield

**Q.** Which “final purity (method not given)” value does the source give for C15-Amphomycin-9-Gly-Leu here?
**A.** 98% pure

**Q.** And the step yield?
**A.** 26% yield

**Q.** For C15-Amphomycin-9-Sar-Orn, which “final purity (method not given)” value is on record?
**A.** 89% pure

**Q.** What about the step yield of the same substance?
**A.** 16% yield

**Q.** With C15-Amphomycin-9-Gly-Gly as the substance, how does the “final purity (method not given)” value read?
**A.** 98% pure

**Q.** What about the step yield of the same substance?
**A.** 28% yield

**Q.** With C15-Amphomycin-9-Gly-Val as the substance, how does the “final purity (method not given)” value read?
**A.** 96% pure

**Q.** What about the step yield of the same substance?
**A.** 30% yield

Same assay, conditions: lipidation step

**Q.** Which results are given for C10-Sar-Amphomycin?
**A.** purity (crude or final not stated): 99.1% pure; step yield: 42.3% yield

**Q.** With C14-PABA-Gly-Amphomycin-9-Gly as the substance, how does the “purity (crude or final not stated)” value read?
**A.** 86% pure

**Q.** For C16-Gly-Amphomycin, which “final purity (method not given)” value is on record?
**A.** 96% pure

**Q.** What about the step yield of the same substance?
**A.** 35% yield

**Q.** Which “final purity (method not given)” value does the source give for CH3—(CH2)15—SO2-Phe-Amphomycin here?
**A.** 91% pure

**Q.** What about the step yield of the same substance?
**A.** 21% yield

**Q.** For CH3—(CH2)13—NH—C(═O)-Gly-Amphomycin, which “purity (crude or final not stated)” value is on record?
**A.** 70.9% pure

**Q.** And the step yield?
**A.** 36.6% yield

**Q.** Which “purity (crude or final not stated)” value does the source give for C12-PABA-Gly-Amphomycin here?
**A.** 82% pure

**Q.** Which “purity (crude or final not stated)” value does the source give for C6-Gly-Amphomycin here?
**A.** 83.9% pure

**Q.** What about the step yield of the same substance?
**A.** 31.7% yield

**Q.** For CH3—(CH2)9—SO2-Phe-Amphomycin, which “final purity (method not given)” value is on record?
**A.** 91% pure

**Q.** And the step yield?
**A.** 21% yield

**Q.** What does the source list for 4′-Octyl-Biphenyl-4-Carboxyl-Amphomycin?
**A.** final purity (method not given): 67.3% pure; step yield: 2.4% yield

**Q.** What does the source list for C18-Gly-Amphomycin?
**A.** final purity (method not given): 84% pure; step yield: 29% yield

**Q.** Which results are given for C8-Gly-Amphomycin?
**A.** purity (crude or final not stated): 82% pure; step yield: 16.1% yield

**Q.** With C10-Gly-Amphomycin as the substance, how does the “purity (crude or final not stated)” value read?
**A.** 91.7% pure

**Q.** And the step yield?
**A.** 37.8% yield

**Q.** Which “purity (crude or final not stated)” value does the source give for C13-(Asp-(OtBu))-Amphomycin here?
**A.** 93% pure

**Q.** With “(CH3—(CH2)7)(CH3—(CH2)5)CH—C(═O)-Gly-Amphomycin” as the substance, how does the “purity (crude or final not stated)” value read?
**A.** 84% pure

**Q.** Which results are given for C15-Amphomycin-9-Gly-C6?
**A.** final purity (method not given): 98% pure; step yield: 9% yield

**Q.** For C15-[Asp-(OtBu)]-Amphomycin, which “purity (crude or final not stated)” value is on record?
**A.** 68% pure

**Q.** For C12-Gly-Amphomycin, which “purity (crude or final not stated)” value is on record?
**A.** 90% pure

**Q.** Which “purity (crude or final not stated)” value does the source give for C14-Sar-Amphomycin here?
**A.** 80.9% pure

**Q.** And the step yield?
**A.** 2.4% yield

**Q.** For CH3—(CH2)11—NH—C(═O)-Gly-Amphomycin, which “purity (crude or final not stated)” value is on record?
**A.** 93% pure

**Q.** Which “purity (crude or final not stated)” value does the source give for Ph-O—(CH2)11-Gly-Amphomycin here?
**A.** 87% pure

**Q.** Which results are given for CH3—(CH2)9—O-p-Ph-C(═O)-Gly-Amphomycin?
**A.** final purity (method not given): 88% pure; step yield: 28% yield

**Q.** For C11-(Asp-(OtBu))-Amphomycin, which “purity (crude or final not stated)” value is on record?
**A.** 85% pure

**Q.** Which “purity (crude or final not stated)” value does the source give for Lys-Gly-Amphomycin-9-C15 here?
**A.** 90% pure

**Q.** What about the step yield of the same substance?
**A.** 17.5% yield

**Q.** For C15-(Asp-(Ome))-Amphomycin, which “purity (crude or final not stated)” value is on record?
**A.** 93% pure

**Q.** And the step yield?
**A.** 45% yield

**Q.** Which “purity (crude or final not stated)” value does the source give for C15-Phg-Amphomycin here?
**A.** 75% pure

**Q.** What does the source list for C13-(Asp-(OMe))-Amphomycin?
**A.** purity (crude or final not stated): 93% pure; step yield: 12% yield

**Q.** Which “purity (crude or final not stated)” value does the source give for C11-(Asp-(OMe))-Amphomycin here?
**A.** 92% pure

**Q.** For Lys-Gly-Amphomycin-9-C13, which “purity (crude or final not stated)” value is on record?
**A.** 89% pure

**Q.** What about the step yield of the same substance?
**A.** 17.8% yield

**Q.** For CH3—(CH2)15—SO2-Gly-Amphomycin, which “final purity (method not given)” value is on record?
**A.** 89% pure

**Q.** Which “final purity (method not given)” value does the source give for CH3—(CH2)11—O-p-Ph-C(═O)-Gly-Amphomycin here?
**A.** 86% pure

**Q.** And the step yield?
**A.** 30% yield

**Q.** Which “final purity (method not given)” value does the source give for C14-Gly-Amphomycin here?
**A.** 92% pure

**Q.** What about the step yield of the same substance?
**A.** 24% yield

**Q.** With C15-(Asp-(OME))-Amphomycin as the substance, how does the “purity (crude or final not stated)” value read?
**A.** 91% pure

**Q.** With CH3—(CH2)9—SO2-Gly-Amphomycin as the substance, how does the “final purity (method not given)” value read?
**A.** 89% pure

**Q.** With C8-Sar-Amphomycin as the substance, how does the “purity (crude or final not stated)” value read?
**A.** 98.2% pure

**Q.** What about the step yield of the same substance?
**A.** 3.1% yield
